Results are given in words; binding and its absence hold for the method and conditions named. Some results given as binding are weak or reduced against the parent protein; the word gives no strength.
Legend:
[1] = molecular target: T1, native CLPTM1 in membrane-permeabilised O-876 cells (Homo sapiens (Human)) (UniProt O96005); assay: flow cytometry on permeabilised O-876 cells
T1 sequence: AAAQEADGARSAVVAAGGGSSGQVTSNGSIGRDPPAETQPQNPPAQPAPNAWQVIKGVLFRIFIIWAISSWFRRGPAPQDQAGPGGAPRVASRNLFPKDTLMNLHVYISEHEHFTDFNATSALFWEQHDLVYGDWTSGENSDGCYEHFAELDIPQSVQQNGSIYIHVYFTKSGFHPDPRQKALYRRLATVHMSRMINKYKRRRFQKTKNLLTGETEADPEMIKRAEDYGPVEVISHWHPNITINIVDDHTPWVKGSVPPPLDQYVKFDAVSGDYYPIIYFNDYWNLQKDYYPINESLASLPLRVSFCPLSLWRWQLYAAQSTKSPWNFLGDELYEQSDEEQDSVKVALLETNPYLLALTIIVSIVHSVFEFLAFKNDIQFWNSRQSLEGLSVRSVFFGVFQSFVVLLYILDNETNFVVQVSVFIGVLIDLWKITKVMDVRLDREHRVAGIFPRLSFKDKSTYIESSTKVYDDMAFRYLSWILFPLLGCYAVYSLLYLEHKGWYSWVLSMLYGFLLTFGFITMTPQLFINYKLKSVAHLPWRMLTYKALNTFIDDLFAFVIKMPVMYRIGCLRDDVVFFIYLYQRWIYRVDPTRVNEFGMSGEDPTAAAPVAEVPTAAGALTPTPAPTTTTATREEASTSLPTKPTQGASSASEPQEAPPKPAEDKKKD

[2] = molecular target: T1, native CLPTM1 in membrane-permeabilised O-876 cells (Homo sapiens (Human)); assay: flow cytometry on membrane-permeabilised O-876 cells, a-mouse IgG-PE secondary, intensity normalised to the signal at 10 ug/ml
[3] = molecular target: T1, native CLPTM1 in membrane-permeabilised O-876 cells (Homo sapiens (Human)); assay: flow cytometry on permeabilised O-876 cells (described in Example 13)
[4] = molecular target: T2, human CLPTM1 on human CD14+ cells and CD14+-derived macrophages (human) (UniProt O96005); assay: flow cytometry on M2 macrophages derived from a human donor, against isotype control staining
T2 sequence: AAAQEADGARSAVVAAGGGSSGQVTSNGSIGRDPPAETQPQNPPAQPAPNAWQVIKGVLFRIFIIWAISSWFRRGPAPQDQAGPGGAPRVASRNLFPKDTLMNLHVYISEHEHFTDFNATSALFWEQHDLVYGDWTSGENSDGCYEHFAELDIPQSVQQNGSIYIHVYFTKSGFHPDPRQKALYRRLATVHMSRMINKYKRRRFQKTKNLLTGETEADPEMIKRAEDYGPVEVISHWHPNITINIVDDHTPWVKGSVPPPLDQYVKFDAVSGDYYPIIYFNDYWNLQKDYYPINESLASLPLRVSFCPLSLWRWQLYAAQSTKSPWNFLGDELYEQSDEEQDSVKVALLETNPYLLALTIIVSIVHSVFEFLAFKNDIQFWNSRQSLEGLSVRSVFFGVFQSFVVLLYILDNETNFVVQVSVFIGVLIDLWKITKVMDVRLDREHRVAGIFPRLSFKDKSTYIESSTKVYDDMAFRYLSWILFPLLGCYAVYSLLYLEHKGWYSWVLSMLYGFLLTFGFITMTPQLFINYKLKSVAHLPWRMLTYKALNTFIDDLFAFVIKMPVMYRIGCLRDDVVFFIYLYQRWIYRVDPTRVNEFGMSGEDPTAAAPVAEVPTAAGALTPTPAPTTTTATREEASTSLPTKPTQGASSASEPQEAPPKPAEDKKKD

[5] = molecular target: T2, human CLPTM1 on human CD14+ cells and CD14+-derived macrophages (human); assay: flow cytometry, surface staining of human M2 macrophages derived in vitro from CD14+ monocytes

Measured: binding

B1: anti-CLPTM1 mouse monoclonal antibody 7G12 (antibody, IgG1, V domains shown)
VH: QVQLQQSGTELVRPGTSVKVSCKASGYAFTNYLIEWVKQRPGQGLEWIGVINPGSGGTRYNEKFKGKATLTADKSSTTAHMQLSSLTSDDSAVYCARWGGNYSGYAMDYWGQGTSVTVSS
VL: QIVLTQSPVIMSASPGEKVTITCSASSSVSYMHWFQQKPGTSPKLWIYSTSNLASGVPARFSGSGSGTSYSLTISRMEAEDAATYYCQQRSSYPPTFGAGTKL
notes: Mouse monoclonal, IgG1 heavy chain, kappa light chain; The printed VL ends in 'TKL.' and may be incomplete; also called CLPTM1 clone 7G12 (IgG1)
binds: [1] | [2]

B2: anti-CLPTM1 antibody 59D04 (format in the assay not stated) (antibody, V domains shown)
VH: EVQLVESGGGVVQPGRSLRLSCAASGFTFSTYAMHWVRQAPGKGLEWVAVISYDGTNKYYADSVKGRFTIFRDNSKNTLYLQMNSLRAEDTAVYYCGSGSYWGQGTLVTVSS
VL: QPVLTQPASVSGSPGQSITISCTGTSSDVGGYNYVSWYQQHPGKAPKLMIYEVTNRPSGVSDRFSGSKSGNTASLTISGLQAEDEADYYCSSYKSSNTVVFGGGTKVTVL
notes: Fully human antibody derived by phage display
not listed: [1]
binds: all other assays above
